From the supplement of paper PMC6331611
± gives the standard deviation of the averaged measurements. Whole data set: some 1,600 compounds, median “normalized growth (OD600, IQM-normalized) in LPM” near 1, cut for the lowest 2% near 0.014. The list shows a part of the results.

Each molecule was assayed on Salmonella enterica serovar Typhimurium SL1344 (assay: normalized growth (OD600, IQM-normalized) in LPM (fraction of plate interquartile mean); higher = more bacterial growth (less inhibition)). Conditions: LPM pH 5.8; 10 µM; 16 h.

Compound	normalized growth
COc1cc2nc(N(C)CCCNC(=O)C3CCCO3)nc(N)c2cc1OC (stereo unspecified)	1.09 ± 0.051
Clc1ccc(Cn2c(CN3CCCC3)nc3ccccc32)cc1	1.07 ± 0.05
CCCCCCCCCCCCCCCC(=O)OC[C@@H](NC(=O)C(Cl)Cl)[C@H](O)c1ccc([N+](=O)[O-])cc1	1.04 ± 0.082
Cc1cc(C(C)(C)C)c(O)c(C(C)(C)C)c1	0.938 ± 0.087
C#CCN[C@@H]1CCc2ccccc21	1.09 ± 0.063
CCOc1nc2cccc(C(=O)OCc3oc(=O)oc3C)c2n1Cc1ccc(-c2ccccc2-c2noc(=O)[nH]2)cc1	0.827 ± 0.052
O=C(O)c1cn(C2CC2)c2cc(N3CCNCC3)c(F)cc2c1=O	0.0145 ± 0.0063
CC(=O)[C@@]1(O)CC[C@H]2[C@@H]3C[C@H](C)C4=CC(=O)C=C[C@]4(C)[C@@]3(F)[C@@H](O)C[C@@]21C	0.582 ± 0.039
CCc1nc(N)nc(N)c1-c1ccc(Cl)cc1	0.929 ± 0.046
C1CCC(C(CC2CCCCN2)C2CCCCC2)CC1 (stereo unspecified)	1 ± 0.043
CN1CC(=O)N2[C@H](c3ccc4c(c3)OCO4)c3[nH]c4ccccc4c3C[C@@H]2C1=O	1.19 ± 0.024
CCC/C=C\C=C/C(=O)N[C@@H](CC(N)=O)C(=O)NC(CC(N)=O)C(=O)N[C@@H](C(=O)N[C@H](CCCN)C(=O)N[C@@H](C(=O)N[C@@H](C(=O)N[C@@H](C(=O)N[C@H](C(=O)N[C@@H](Cc1ccccc1)C(=O)N[C@H](CCCN)C(=O)NC(C(=O)N[C@H](C(=O)NC(C(=O)NCC(=O)N[C@@H](CC(C)C)C(=O)N[C@H](C)C(=O)NC(C(=O)O)C1CCC(O)C(Cl)C1)C1CCC(O)CC1)[C@H](C)O)C1CCC(O)CC1)[C@H](C)O)C1CCC(O)CC1)C1CCC(O)CC1)[C@H](C)O)C1CCC(O)CC1 (stereo partly specified) [RAMOPLANIN [A2 shown; 2mM]]	1.31 ± 0.07
COc1cc(C(=O)NCc2ccc(OCCN(C)C)cc2)cc(OC)c1OC	1.59 ± 0.16
C[C@](N)(Cc1ccc(O)c(O)c1)C(=O)O	1.1 ± 0.042
Clc1ccc(C(Cn2ccnc2)OCc2ccsc2Cl)c(Cl)c1 (stereo unspecified)	1.04 ± 0.037
C[C@H]1c2cccc(O)c2C(=O)C2=C(O)[C@]3(O)C(=O)C(C(N)=O)=C(O)[C@@H](N(C)C)[C@@H]3[C@@H](O)[C@@H]21	0.0125 ± 0.00056
O=C1/C(=C/c2cccs2)CCC/C1=C\c1cccs1	1.19 ± 0.041
CCOC(=O)COc1ccc2c(=O)cc(-c3ccccc3)oc2c1	1.01 ± 0.035
Cc1ccc(NC(=O)c2ccc(CN3CCN(C)CC3)cc2)cc1Nc1nccc(-c2cccnc2)n1	0.922 ± 0.042
O=C(O)C(=O)O.[NH-][C@@H]1CCCC[C@H]1[NH-].[Pt+2]	0.742 ± 0.017
Cc1onc(-c2ccccc2Cl)c1C(=O)N[C@@H]1C(=O)N2[C@@H]1SC(C)(C)[C@@H]2C(=O)O	1.15 ± 0.022

A few values from the list:
Entry of C[C@H]1c2cccc(O)c2C(=O)C2=C(O)[C@]3(O)C(=O)C(C(N)=O)=C(O)[C@@H](N(C)C)[C@@H]3[C@@H](O)[C@@H]21 under normalized growth: 0.0125 ± 0.00056
Entry of C#CCN[C@@H]1CCc2ccccc21 under normalized growth: 1.09 ± 0.063
